Measurements reported in patent publication US9594047B2, “Potentiometric sensors and method for measuring intermolecular interactions” (Universiteit Antwerpen, priority 2013, dated 2017).

Assay: Potentiometric FIA sensorgram, linearization method, rubber phase (PVC) coated sensor
Type: binding
Excerpt: The model is based on the assumption that the rate determining phenomenon is the adsorption of analyte A (second molecular species) to the surface receptor sites Rsurface: A+Rsurface⇄ARsurface (5) Receptor sites are occupied by the analyte are designated as Roccupied. The rate of adsorption can be expressed as νon: […]
Differential equation 6 can be solved to yield equations 8 and 10. In these equations, Roccupied is replaced by R, the concentration-related response (10^mV/S−1), as both are linearly related (see above). […]
[formula] Starting from the “association” part of the sensorgram, one can now plot dR/dt versus R. For a pseudo-first-order kinetics, this will yield a straight line with slope equal to slope=−(koncanalyte+koff) (12) Plotting this slope versus canalyte then yields a graph from which kon and koff can be calculated.
From kon and koff, Kassoc=kon/koff is obtained, from which Kdiss (=1/Kassoc) and the Gibbs free energy of interaction can be calculated (ΔG^0=−RT ln Kass). […]
The membrane potential was measured against an Orion 800500 Ross reference electrode (Ag/AgCl) using a high impedance (10^13Ω) home-made amplifier. The detection signals were recorded on a data station composed of a PC equipped with a 6013 NI DA converter and LabVIEW 7 (National Instruments, Austin, Tex.) based software. […]

| Structure (SMILES) | ΔG value of interaction with the sensor surface material [kcal/mol] |
| --- | --- |
| CCN(CC)CC(=O)Nc1c(C)cccc1C [Lidocaine, lidocaine] | 7.29 |
| CN(C)CCCN1c2ccccc2Sc2ccccc21 [Promazine] | 8.78 |
